The results in this text go back to paper PMC11508440.

Protein sequences, listed by entry. Tags and fused reporters are not part of them.
UniProt Q12983: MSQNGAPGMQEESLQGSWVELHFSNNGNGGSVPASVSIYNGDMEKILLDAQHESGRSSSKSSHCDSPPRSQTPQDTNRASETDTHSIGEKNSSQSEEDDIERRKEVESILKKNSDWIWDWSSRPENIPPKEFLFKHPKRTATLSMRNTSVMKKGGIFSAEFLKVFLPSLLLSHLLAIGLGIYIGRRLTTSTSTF
UniProt Q16665: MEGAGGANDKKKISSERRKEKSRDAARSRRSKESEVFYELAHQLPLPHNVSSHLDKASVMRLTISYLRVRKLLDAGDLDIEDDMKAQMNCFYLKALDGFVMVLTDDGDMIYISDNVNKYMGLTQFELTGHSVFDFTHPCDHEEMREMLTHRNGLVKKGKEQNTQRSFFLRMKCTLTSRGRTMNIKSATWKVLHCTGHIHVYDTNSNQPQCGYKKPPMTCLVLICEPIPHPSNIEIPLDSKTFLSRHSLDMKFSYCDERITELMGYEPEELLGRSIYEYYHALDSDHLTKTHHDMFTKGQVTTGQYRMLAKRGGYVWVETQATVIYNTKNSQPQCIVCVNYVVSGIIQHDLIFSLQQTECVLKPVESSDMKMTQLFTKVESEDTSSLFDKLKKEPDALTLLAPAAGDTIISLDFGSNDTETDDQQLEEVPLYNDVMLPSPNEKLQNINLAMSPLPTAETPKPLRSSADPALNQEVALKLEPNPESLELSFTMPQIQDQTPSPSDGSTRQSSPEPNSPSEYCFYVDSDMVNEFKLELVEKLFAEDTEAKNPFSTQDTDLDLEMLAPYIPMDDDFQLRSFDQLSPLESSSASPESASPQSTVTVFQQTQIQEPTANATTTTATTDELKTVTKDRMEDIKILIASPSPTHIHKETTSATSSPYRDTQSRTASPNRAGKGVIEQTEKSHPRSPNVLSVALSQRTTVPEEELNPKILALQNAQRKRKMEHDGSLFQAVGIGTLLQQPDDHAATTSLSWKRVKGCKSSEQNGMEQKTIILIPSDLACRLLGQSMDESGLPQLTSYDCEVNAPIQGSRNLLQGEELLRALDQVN
UniProt P42224: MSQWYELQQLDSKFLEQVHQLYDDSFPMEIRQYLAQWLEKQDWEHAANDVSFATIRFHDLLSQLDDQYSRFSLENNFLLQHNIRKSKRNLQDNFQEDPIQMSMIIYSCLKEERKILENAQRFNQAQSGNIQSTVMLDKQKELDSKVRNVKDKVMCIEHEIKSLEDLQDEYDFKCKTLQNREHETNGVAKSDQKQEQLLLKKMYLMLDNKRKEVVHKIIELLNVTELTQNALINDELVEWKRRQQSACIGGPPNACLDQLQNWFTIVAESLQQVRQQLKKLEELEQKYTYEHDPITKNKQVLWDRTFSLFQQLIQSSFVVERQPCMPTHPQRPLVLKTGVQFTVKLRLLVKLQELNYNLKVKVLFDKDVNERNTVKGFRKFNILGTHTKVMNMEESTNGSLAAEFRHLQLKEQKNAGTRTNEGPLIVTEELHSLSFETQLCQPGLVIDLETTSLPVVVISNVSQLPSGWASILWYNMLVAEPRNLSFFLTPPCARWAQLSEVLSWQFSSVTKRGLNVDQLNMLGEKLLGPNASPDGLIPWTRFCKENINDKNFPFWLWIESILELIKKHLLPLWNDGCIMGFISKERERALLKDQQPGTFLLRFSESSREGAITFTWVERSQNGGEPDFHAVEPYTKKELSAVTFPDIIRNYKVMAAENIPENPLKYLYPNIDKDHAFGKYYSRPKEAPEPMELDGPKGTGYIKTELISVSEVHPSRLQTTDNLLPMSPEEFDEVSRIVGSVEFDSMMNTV

These are yes or no findings as the source states them, for the method shown. Binding seen in cells or lysates may run through a third protein. Some results given as binding are weak or reduced against the parent protein; the word gives no strength.

For assay [1], the target named is BNIP3 (human (endogenous in KGN)) (UniProt Q12983). In words: co-IP; endogenous proteins of granulosa cells; antibodies the same as for Western blotting; procedure according to ref. 8; which partner was precipitated is not told. For orientation: A western blot detects proteins with antibodies after separation by electrophoresis.
Assay [2] has as its target HIF1α (human (endogenous in KGN)) (UniProt Q16665). The description is as above.

Turning to HIF1α (from UniProt Q16665 1-826), the binding entry in assay [1] is “binds”.

Consider “Signal transducer and activator of transcription 1 (STAT1) (from UniProt P42224 1-750)”, for which the binding result in assay [2] is given as “binds”.
